# Percent effect of library compounds

Sequences of proteins named here, by UniProt entry; tags and fusion partners are left off. Residues count along the entry.
UniProt A4I591, 1-473: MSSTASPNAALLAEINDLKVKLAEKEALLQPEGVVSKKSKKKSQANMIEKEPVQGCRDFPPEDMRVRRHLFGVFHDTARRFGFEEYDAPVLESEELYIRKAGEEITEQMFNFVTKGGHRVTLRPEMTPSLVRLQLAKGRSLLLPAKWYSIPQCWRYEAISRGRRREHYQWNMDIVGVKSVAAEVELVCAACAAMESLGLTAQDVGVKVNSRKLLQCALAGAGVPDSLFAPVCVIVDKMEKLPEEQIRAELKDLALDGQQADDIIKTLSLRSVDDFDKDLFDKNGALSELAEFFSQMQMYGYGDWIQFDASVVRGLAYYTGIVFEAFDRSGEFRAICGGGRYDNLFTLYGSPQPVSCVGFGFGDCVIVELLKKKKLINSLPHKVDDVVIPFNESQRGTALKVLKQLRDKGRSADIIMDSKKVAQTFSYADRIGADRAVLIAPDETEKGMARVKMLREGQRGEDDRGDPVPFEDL

Each number is a percent effect as filed.
The controls that fix the scale are not given in the record; negative values are as filed.
The compounds are a random part of those screened.

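Enzyme assay of histidyl-tRNA synthetase; the read-out is not stated. Target: Histidine-tRNA ligase, Leishmania infantum (UniProt A4I591). Concentration: 30 µM. Higher reads as stronger inhibition (inferred: compounds with an IC50 in retests scored well above the rest). The assay is labelled LdHisRS but filed under L. infantum. Size under these conditions: about 69,000 compounds, about 410 of them at 50% or above in at least one test.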

structure: Cc1ccc(N2Cc3cnn(Cc4ccc(F)cc4)c3C2)nn1
effect: 19.79%

structure: O=C(C1=CCCC1)N1C[C@H](Oc2cccnc2)[C@H]2OCCC[C@H]21
effect: 3.846%

structure: CN1CCCN(C(=O)c2nc3c(o2)CN(S(C)(=O)=O)C3)CC1
effect: -0.9009%

structure: COc1ccccc1CN(C)C(=O)NCc1c(C)cc(C)[nH]c1=O
effect: 11.4%

structure: Cc1cc(C)n(CCC(=O)N2CCCC(n3nc(C)nc3C)C2)n1 (stereo not given)
effect: 5.882%

structure: CC(C)NC(=O)N1CCN(S(C)(=O)=O)CC2(CNC(=O)C2)C1 (stereo not given)
effect: 17.95%

structure: CCOC(=O)CNC(=O)N1CCOC(CCc2ccccc2)C1 (stereo not given)
effect: -5%

structure: CCN1CCC2(CC1)CC(NC(=O)c1ccnnc1)c1ccccc12 (stereo not given)
effect: 18.97%

structure: CSC1=Nc2c(cnn2-c2ccccc2)C2=NCCCN12
effect: 11.03%

structure: CC(C)c1nnc2n1CCN(CCS(=O)(=O)c1ccccc1)C2
effect: -10.71%

structure: Cc1nc(C)n(CC2CN(Cc3cccc4ccccc34)CCO2)n1 (stereo not given)
effect: 16.67%

structure: Cc1cccc(C(=O)N2C[C@@H]3OCCN(C(C)C)[C@@H]3C2)n1
effect: 7.547%

structure: CC(=O)c1cccc(NC(=O)CCn2nc(-c3cccs3)oc2=O)c1
effect: 11.61%

structure: Cc1csc(NC(=O)[C@@H]2C[C@H]3[C@H](CCN3c3ncccn3)O2)n1
effect: 13.46%

structure: c1ccc(-c2cnc(CN3CCCC3Cn3cccn3)o2)cc1 (stereo not given)
effect: 21.43%

structure: CCCN1C(=O)CC2(CCCNC2)C1=O (stereo not given)
effect: 12.2%

structure: c1cnnc(N2CCCC(NCc3cn4ccccc4n3)C2)c1 (stereo not given)
effect: 25%

structure: Cc1cccc(N2CCN(C(=O)Nc3cnn(CC(N)=O)c3)CC2)c1
effect: 6.383%

structure: CCCNC(=O)C(C)Oc1ccc(F)cc1 (stereo not given)
effect: 6.061%

structure: O=C1CCCN1CCCN1CCCC1Cn1cccn1 (stereo not given)
effect: 1.37%

structure: Cc1ncc(CN2C[C@H]3C[C@H](OCc4ccccc4)C[C@H]3C2)cn1
effect: -11.58%

structure: Cc1ncc2c(n1)CN(Cc1nc(C)c(C)o1)CC2
effect: 37.04%

structure: COc1cc(CNC(C)Cn2ccnc2)cc2c1OCCO2 (stereo not given)
effect: 9.91%

structure: CCC(CC)C(=O)NCc1c(C)nn(C)c1N1CCCN(C)CC1
effect: 0.885%

structure: O=C(c1ccc2occc2c1)N1CCC(C(=O)O)(n2cccn2)CC1
effect: 20%

structure: CCN(CC)C(=O)c1nnsc1-c1ccc(C)cc1
effect: 10.11%

structure: COCC(=O)Nc1ccc([C@@H](O)[C@H]2COCC(=O)N2C)cc1
effect: 27.03%

structure: O=C(CN1CCCC(c2ccn[nH]2)C1)Nc1nc2c(s1)CCC2 (stereo not given)
effect: 2.564%

For reference, 2 entries once more:

Result for Cc1ccc(N2Cc3cnn(Cc4ccc(F)cc4)c3C2)nn1 was 19.79%.
Result for CCN1CCC2(CC1)CC(NC(=O)c1ccnnc1)c1ccccc12 (stereo not given) was 18.97%.

Source: ChEMBL document CHEMBL3988442, “University of Dundee, Small-Polar-MMV Screening Library” (2021).